Test results as given in article PMC4830966, “Molecular basis of the STIL coiled coil oligomerization explains its requirement for de-novo formation of centrosomes in mammalian cells” (Scientific Reports, 2016).
Results are given in words; binding and its absence hold for the method and conditions named. In cells and extracts the contact can be indirect. Some results given as binding are weak or reduced against the parent protein; the word gives no strength. Tags and fused reporters may be left off the sequences shown.

Biological target: T1, Flag-STIL (WT full-length STIL protein) (human) (UniProt Q15468)
T1 sequence: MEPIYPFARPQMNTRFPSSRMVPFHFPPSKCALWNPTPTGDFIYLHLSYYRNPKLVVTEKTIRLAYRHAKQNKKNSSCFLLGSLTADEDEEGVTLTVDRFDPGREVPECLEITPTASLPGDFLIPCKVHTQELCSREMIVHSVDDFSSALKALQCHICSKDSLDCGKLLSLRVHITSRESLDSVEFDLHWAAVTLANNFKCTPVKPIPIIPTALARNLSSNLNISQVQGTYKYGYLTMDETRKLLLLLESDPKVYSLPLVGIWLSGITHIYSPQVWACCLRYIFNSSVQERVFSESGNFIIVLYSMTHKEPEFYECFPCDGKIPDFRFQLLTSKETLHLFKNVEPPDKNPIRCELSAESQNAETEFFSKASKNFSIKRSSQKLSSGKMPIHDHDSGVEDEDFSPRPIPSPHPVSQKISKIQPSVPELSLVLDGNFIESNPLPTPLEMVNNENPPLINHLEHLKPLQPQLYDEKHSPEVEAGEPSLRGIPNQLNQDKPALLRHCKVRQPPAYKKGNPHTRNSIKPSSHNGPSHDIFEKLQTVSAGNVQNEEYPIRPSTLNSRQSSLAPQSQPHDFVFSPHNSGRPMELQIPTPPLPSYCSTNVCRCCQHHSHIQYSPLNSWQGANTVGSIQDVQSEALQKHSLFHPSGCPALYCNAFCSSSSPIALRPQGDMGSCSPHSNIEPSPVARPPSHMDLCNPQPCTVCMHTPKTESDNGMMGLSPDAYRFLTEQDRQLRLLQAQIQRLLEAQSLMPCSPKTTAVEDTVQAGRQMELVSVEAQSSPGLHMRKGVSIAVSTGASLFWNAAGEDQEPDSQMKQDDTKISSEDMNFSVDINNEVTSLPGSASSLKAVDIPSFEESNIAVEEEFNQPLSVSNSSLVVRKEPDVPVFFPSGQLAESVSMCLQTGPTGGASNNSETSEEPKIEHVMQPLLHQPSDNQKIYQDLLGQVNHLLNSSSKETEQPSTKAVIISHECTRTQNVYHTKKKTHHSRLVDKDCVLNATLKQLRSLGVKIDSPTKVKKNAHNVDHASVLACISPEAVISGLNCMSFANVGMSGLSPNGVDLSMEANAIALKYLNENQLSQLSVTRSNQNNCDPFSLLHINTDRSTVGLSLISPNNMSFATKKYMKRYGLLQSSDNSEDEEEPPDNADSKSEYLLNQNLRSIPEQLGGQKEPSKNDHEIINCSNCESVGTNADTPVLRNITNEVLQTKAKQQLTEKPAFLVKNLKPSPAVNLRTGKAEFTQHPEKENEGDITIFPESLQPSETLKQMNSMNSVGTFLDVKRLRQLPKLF
Assay: co-IP; Flag-tagged STIL constructs co-expressed with WT Strep-STIL in HEK293T; anti-Flag M2 agarose beads, 4 °C overnight; hypotonic gentle lysis buffer (5 mM Tris-HCl pH 7.5, 10 mM NaCl, 2 mM EDTA, 0.5% Triton-X100); immunoblot against Strep

- binding: binds
B1: Strep-STIL (Strep-tagged WT STIL) (protein, UniProt Q15468 1-1287)
chain: MEPIYPFARPQMNTRFPSSRMVPFHFPPSKCALWNPTPTGDFIYLHLSYYRNPKLVVTEKTIRLAYRHAKQNKKNSSCFLLGSLTADEDEEGVTLTVDRFDPGREVPECLEITPTASLPGDFLIPCKVHTQELCSREMIVHSVDDFSSALKALQCHICSKDSLDCGKLLSLRVHITSRESLDSVEFDLHWAAVTLANNFKCTPVKPIPIIPTALARNLSSNLNISQVQGTYKYGYLTMDETRKLLLLLESDPKVYSLPLVGIWLSGITHIYSPQVWACCLRYIFNSSVQERVFSESGNFIIVLYSMTHKEPEFYECFPCDGKIPDFRFQLLTSKETLHLFKNVEPPDKNPIRCELSAESQNAETEFFSKASKNFSIKRSSQKLSSGKMPIHDHDSGVEDEDFSPRPIPSPHPVSQKISKIQPSVPELSLVLDGNFIESNPLPTPLEMVNNENPPLINHLEHLKPLQPQLYDEKHSPEVEAGEPSLRGIPNQLNQDKPALLRHCKVRQPPAYKKGNPHTRNSIKPSSHNGPSHDIFEKLQTVSAGNVQNEEYPIRPSTLNSRQSSLAPQSQPHDFVFSPHNSGRPMELQIPTPPLPSYCSTNVCRCCQHHSHIQYSPLNSWQGANTVGSIQDVQSEALQKHSLFHPSGCPALYCNAFCSSSSPIALRPQGDMGSCSPHSNIEPSPVARPPSHMDLCNPQPCTVCMHTPKTESDNGMMGLSPDAYRFLTEQDRQLRLLQAQIQRLLEAQSLMPCSPKTTAVEDTVQAGRQMELVSVEAQSSPGLHMRKGVSIAVSTGASLFWNAAGEDQEPDSQMKQDDTKISSEDMNFSVDINNEVTSLPGSASSLKAVDIPSFEESNIAVEEEFNQPLSVSNSSLVVRKEPDVPVFFPSGQLAESVSMCLQTGPTGGASNNSETSEEPKIEHVMQPLLHQPSDNQKIYQDLLGQVNHLLNSSSKETEQPSTKAVIISHECTRTQNVYHTKKKTHHSRLVDKDCVLNATLKQLRSLGVKIDSPTKVKKNAHNVDHASVLACISPEAVISGLNCMSFANVGMSGLSPNGVDLSMEANAIALKYLNENQLSQLSVTRSNQNNCDPFSLLHINTDRSTVGLSLISPNNMSFATKKYMKRYGLLQSSDNSEDEEEPPDNADSKSEYLLNQNLRSIPEQLGGQKEPSKNDHEIINCSNCESVGTNADTPVLRNITNEVLQTKAKQQLTEKPAFLVKNLKPSPAVNLRTGKAEFTQHPEKENEGDITIFPESLQPSETLKQMNSMNSVGTFLDVKRLRQLPKLF
